The nature of data set [1]: general procedure: peptide synthesis; Fmoc-PAL-PEG-PS, capacity 0.2 mmole/g; Fmoc-amino acid OPfp esters with HOAt; HATU; PyAOP or TFFH for N-methyl residues. Particulars: whole synthesis, scale of the general procedure 0.02 mmole (100 mg resin).
A short description of data set [2]: general procedure: peptide synthesis; Fmoc-PAL-PEG-PS; Fmoc-amino acid OPfp esters with HOAt; HATU; PyAOP or TFFH for N-methyl residues. The following applies: whole synthesis, scale 0.02 mmole, trifluoroacetate salt.

For some of these results: Strings that start with PEPTIDE1 are HELM notation: dots part the residues, brackets hold end groups and non-standard residues. Ends that are not written are not given here.

Substance “Ac-Ser-Ser-Ile-lle-Ser-His-Phe-Arg-Trp-Gly-Lys-Pro-Val-NH2” displayed an isolated yield in data set [1] (tetratrifluoroacetate) of 49%.
Take “L-seryl-L-seryl-L-Isoleucyl-L-isoleucyl-L-seryl -L-histidyl-L-phenylalanyl-L-arginyl-L-tryptophanyl-glycyl-L-lysyl-L-prolyl-L-valinamide”: in data set [2], the crude mass is reported as 31 mg, the isolated mass came to 13.2 mg and the isolated yield came out at 33%.
Substance “NMeSer-Ser-Ile-lle-Ser-His-Phe-Arg-Trp-Gly-Lys-Pro-Val-NH2” came in with an isolated yield in data set [1] (tetratrifluoroacetate) of 47%.
“PEPTIDE1{S.S.I.I.S.H.[dF].R.W.G.K.P.V.[am]}$$$$V2.0” returned an isolated yield in data set [1] (tetrafluoroacetate) of 36%.
Substance SSIVSHFRWGKPV-NH2 showed an isolated yield in data set [1] (tetratrifluoroacetate) of 69%.
Still for that read-out and setting: for SSVISHFRWGKPV-NH2 the value was 42%.
Still for that read-out and setting: the figure for “Ser-Ser-Ile-lle-Ser-His-NMedPhe-Arg-Trp-Gly-Lys-Pro-Val-NH2” is 40%.
Same read-out and setting: the figure for “Ser-Ser-Ile-lle-Ser-His-Phe-Arg-Trp-Gly-Lys-Pro-NMeVal-NH2” is 2.5%.
Consider “Ser-Ser-Ile-lle-Ser-His-Phe-Arg-Trp-Gly-Lys-Pro-Val-Tyr-NH2”, for which the isolated yield in data set [1] (tetratrifluoroacetate) was found to be 28%.
Regarding “Ser-Thr-Ile-lle-Ser-His-Phe-Arg-Trp-Gly-Lys-Pro-Val-NH2”, the isolated yield in data set [1] (tetratrifluoroacetate) is 49%.
On the same count and under the same terms, for “Thr-Ser-Ile-lle-Ser-His-Phe-Arg-Trp-Gly-Lys-Pro-Val-NH2” the value was 52%; for YSIISHFRGKPV-NH2, 34%; for YSSIISHFRWGKPV-NH2, 33%.
Still for that read-out and setting: the figure for “dSer-Ser-Ile-lle-Ser-His-Phe-Arg-Trp-Gly-Lys-Pro-Val-NH2” is 44%.

The record behind these values is patent US7662782B2 (Action Pharma A/S, priority 1998, dated 2010).
